Measurements reported in PubChem BioAssay AID588590 (National Center for Advancing Translational Sciences (NCATS), 2011).
The whole screen tested about 390,000 compounds, of which about 4,000 (1%) were called active. This list was built around the results that the source calls inconclusive (neither active nor inactive); the mix of calls is not that of the screen. Calls come from the whole dose curve; as a rule, active = well fitted inhibition curve with a large enough effect; inconclusive = small, poorly fitted or top-dose-only effect, or another doubt; inactive = no such curve, though single readings can be large or run the other way. Potencies beside an inconclusive call are fits to weak or partial responses and may not hold up.

Chains of the proteins cited; added tags and fusions are not shown. Lines headed by an entry give the natural chain unless they say otherwise; changes in a name come on top.
UniProt Q9UNA4: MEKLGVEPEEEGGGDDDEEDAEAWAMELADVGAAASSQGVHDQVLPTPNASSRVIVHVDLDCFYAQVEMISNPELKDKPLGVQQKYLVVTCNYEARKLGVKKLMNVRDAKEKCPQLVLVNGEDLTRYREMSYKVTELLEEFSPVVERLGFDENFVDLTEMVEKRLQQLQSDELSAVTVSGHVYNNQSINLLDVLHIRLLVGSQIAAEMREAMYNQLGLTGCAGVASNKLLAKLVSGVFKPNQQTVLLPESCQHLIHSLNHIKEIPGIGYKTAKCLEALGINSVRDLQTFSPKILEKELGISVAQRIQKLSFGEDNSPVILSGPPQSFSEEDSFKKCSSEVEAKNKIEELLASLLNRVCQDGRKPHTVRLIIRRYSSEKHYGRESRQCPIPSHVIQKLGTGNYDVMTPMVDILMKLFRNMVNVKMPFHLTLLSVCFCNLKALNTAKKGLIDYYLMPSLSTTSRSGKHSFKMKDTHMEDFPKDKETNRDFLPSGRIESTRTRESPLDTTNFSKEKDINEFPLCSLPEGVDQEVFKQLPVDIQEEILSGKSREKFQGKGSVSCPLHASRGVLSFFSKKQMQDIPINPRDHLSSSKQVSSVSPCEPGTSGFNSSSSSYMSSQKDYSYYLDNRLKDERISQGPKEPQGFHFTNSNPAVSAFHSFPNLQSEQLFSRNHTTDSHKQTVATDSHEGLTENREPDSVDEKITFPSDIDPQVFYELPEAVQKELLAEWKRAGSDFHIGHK

Molecular target: DNA polymerase iota (Homo sapiens) (UniProt Q9UNA4)
Experiment: qHTS for Inhibitors of Polymerase Iota
Settings: Pol iota fluorescent replication assay, 10 min; series mostly up to 115 µM
How it was run: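 Fluorescent replication assay read twice, at 0 min and 10 min after adding 50 nM (final) substrate. Enzyme (10 nM) and compounds were first incubated 15 min at room temperature; enzyme-free buffer wells were negative controls.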
Potency is the fitted concentration of half-maximal effect.

Potency, active:
Cc1c(Br)c(O)c(Br)c(O)c1/C=N/n1c(-c2ccccc2)n[nH]c1=S 7.94 µM, O=C1CCCC(O)=C1N=Nc1c(Cl)cc(C(F)(F)F)cc1Cl 79.4 µM, Cn1cccc1/C=C1\SC(=O)N(CC(=O)Nc2ccc(F)cc2)C1=O 79.4 µM, Cc1cc(SCC(=O)N/N=C/c2ccc(O)c(O)c2)nc2ccccc12 50.1 µM

Potency, inconclusive:
CC/C(C)=N/Nc1nc2sc3c(c2c(=O)[nH]1)CC(C)(C)OC3 14.1 µM [inhibitor, partial curve, poor fit], NC(=O)c1ccccc1N/C=C/C(=O)c1ccc(F)cc1 79.4 µM [inhibitor, single point], CC(=O)c1ccc(S(=O)(=O)Nc2ccc(-c3cn4c(C)csc4n3)cc2)cc1 89.1 µM [inhibitor, single point], C=CCOC(=O)C1=C(C)NC(SCC(=O)N(CC)CC)=C(C#N)C1c1ccccc1 (stereo not drawn) 22.4 µM [inhibitor, partial curve, poor fit], CCOc1ccc(C2Nc3cccc4cccc(c34)N2)cc1OC 3.16 µM [inhibitor, partial curve, poor fit], Cc1ccc(C(=O)N2CCC3(CC2)Oc2ccc(Cl)cc2C(=O)C32CC(c3ccc(Cl)cc3)=NO2)s1 (stereo not drawn) 39.8 µM [inhibitor, single point], CCCN=C1N(C)C[C@@H]2[C@@H]3C(=O)N(C)C(=O)[C@@H]3[C@](CC)(C(=O)OC)N12 28.2 µM [inhibitor, single point], O=C(NN1C(=O)c2ccccc2NC1c1ccc([N+](=O)[O-])o1)c1ccccc1 (stereo not drawn) 1.78 µM [inhibitor, partial curve, poor fit], CCN(CC)S(=O)(=O)c1cccc(-c2nnc(SCCOc3ccc(Cl)cc3)o2)c1 39.8 µM [inhibitor, single point], COc1ccc(O)c(-c2cc(-c3ccc(F)cc3)n[nH]2)c1 89.1 µM [inhibitor, single point], COc1ccc(Cn2c(C)c(C)c(C#N)c2NC(=O)Nc2ccc(F)cc2)cc1 28.2 µM [inhibitor, partial curve, poor fit], O=C(NNC(=O)c1ccccc1O)c1cc2ccccc2o1 25.1 µM [inhibitor, partial curve, poor fit], O=C(CSc1nnc(-c2ccccc2Cl)o1)Oc1ccc(Br)cc1 20 µM [inhibitor, single point], Cc1ccc(CNC(=O)c2c[nH]c3ccc(S(=O)(=O)N4CCOCC4)cc3c2=O)cc1 44.7 µM [inhibitor, partial curve, poor fit], O=C(NC(=S)Nc1ccccc1Cl)c1csnn1 8.91 µM [inhibitor, partial curve, poor fit], Cc1sc2ccccc2[n+]1CC(=O)O 28.2 µM [inhibitor, partial curve, poor fit], COc1ccc(S(=O)(=O)N2CCN(c3ccc(F)cc3)CC2)cc1OC 0.398 µM [inhibitor, partial curve, poor fit], COc1ccc(Cl)cc1NC(=O)c1cccc(S(=O)(=O)Nc2c(C)n(C)n(-c3ccccc3)c2=O)c1 100 µM [inhibitor, partial curve, poor fit], N#C/C(=C/c1ccc(N2CCCCC2)o1)C(=O)Nc1ccc2ccccc2c1 35.5 µM [inhibitor, single point], CC(CCN1CCN(c2ccccc2)CC1)c1ccccc1 (stereo not drawn) 35.5 µM [inhibitor, single point], N#CCCN1CCC(NC(=O)OCc2ccccc2)CCC1=O (stereo not drawn) 20 µM [inhibitor, partial curve, poor fit], Cc1cc(/C=C2/C(=N)N3C(=NC2=O)SN=C3S(C)(=O)=O)c(C)n1-c1ccccc1F 31.6 µM [inhibitor, single point], COC(=O)CCCC1=CC2=CC(=O)C(C)(OC(=O)c3cccs3)C(=O)C2=CN1c1ccccc1 (stereo not drawn) 39.8 µM [inhibitor, full curve, poor fit], CCCCn1c(N)c(N(CCOC)C(=O)c2cc3c(s2)CCC3)c(=O)[nH]c1=O 44.7 µM [inhibitor, partial curve], Cc1ccccc1N1C(=O)c2cccc3c(N(C)CCO)ccc(c23)C1=O 28.2 µM [inhibitor, full curve], CCn1c(CNC(=O)COc2ccc(C(C)C)cc2)nnc1SCC(=O)Nc1cc(F)ccc1C 56.2 µM [inhibitor, partial curve, poor fit], COC(=O)c1cc(OC)c(OC)cc1-n1cnc2cc(OC)c(OC)cc2c1=O 89.1 µM [inhibitor, single point], Cc1ccc(NC2c3ncccc3C(=O)N2Cc2ccco2)c(C)c1 (stereo not drawn) 11.2 µM [inhibitor, full curve, poor fit], Cc1cc(C)nc(SC2=CS(=O)(=O)c3ccccc32)n1 50.1 µM [inhibitor, single point], CCc1ccccc1NC(=O)c1nn(-c2ccc(C)cc2)c(=O)c2c1c1ccccc1n2C 100 µM [inhibitor, partial curve, poor fit], C/C=C/COC(=O)c1[nH]c2c(c1C)C(=O)CC(c1ccco1)C2 (stereo not drawn) 28.2 µM [inhibitor, full curve, poor fit], CCc1ccc(Cn2nnc3c(=O)[nH]c(C4CCCN(C(=O)c5cccc(Cl)c5)C4)nc32)cc1 (stereo not drawn) 79.4 µM [inhibitor, partial curve, poor fit], COc1ccc(CC(C)N2CCN(c3cccc(C(F)(F)F)c3)CC2)cc1OC (stereo not drawn) 39.8 µM [inhibitor, partial curve, poor fit], CCCOC(=O)C1[C@H]2C(=O)N(C(C)c3ccc(OC)cc3)C[C@]23C=C[C@H]1O3 (stereo partly drawn) 100 µM [inhibitor, partial curve, poor fit], Cc1cnn(-c2cc(N/N=C/c3ccccc3Cl)ncn2)c1 39.8 µM [inhibitor, single point], CC(=O)c1cccc(NC(=O)CCS(=O)(=O)c2ccc3c(c2)n(C)c(=O)c(=O)n3C)c1 89.1 µM [inhibitor, single point], COc1ccc(C(=O)/C(=C\c2ccco2)N2C=CC=CC2=C(C#N)C#N)cc1 15.8 µM [inhibitor, partial curve, poor fit], C[n+]1ccc(/C=C/c2ccc([N+](C)(C)C)cc2)c2ccccc21 15.8 µM [inhibitor, partial curve], NC(=NCc1ccccc1)c1cccc([N+](=O)[O-])c1 79.4 µM [inhibitor, partial curve, poor fit], O=C1c2nc3cc(-c4ccco4)[nH]n3c(=O)c2CN1Cc1ccccc1 28.2 µM [inhibitor, partial curve], N#C/C(=C\c1ccc(OCc2cccc(C(=O)O)c2)cc1)C(=O)NCc1ccco1 22.4 µM [inhibitor, full curve], CNc1cc(N2CCCCCC2)ccc1[N+](=O)[O-] 89.1 µM [inhibitor, single point], O=C(C[C@H]1C/C=C\C[C@H](NC(=O)OCC2c3ccccc3-c3ccccc32)C(=O)O[C@H](c2ccccc2)CNC1=O)N[C@H](CO)Cc1ccccc1 10 µM [inhibitor, partial curve], CCN(CC)c1ccc(/C=C/c2ccc3ccc(OC)cc3[n+]2CC)cc1 79.4 µM [inhibitor, partial curve, poor fit]

Potency, inactive:
CCOC(=O)Cc1ccc(NC(=O)N(Cc2ccc(OC)cc2)C2CCN(C(C)=O)CC2)cc1, CCc1ccc(N2CC(c3nnc(NC(=O)c4ccco4)s3)CC2=O)cc1 (stereo not drawn), Cc1ccc(/C=C/C(=O)NCC2COc3ccccc3O2)o1 (stereo not drawn), Cc1ccc(Cc2cnc(NC(=O)c3ccc4c(c3)CC(c3ccccc3)OC4=O)s2)cc1 (stereo not drawn), Cc1ccc(CN(Cc2ccco2)C(=O)c2ccccc2Br)o1, CCCOc1cccc(C2c3c(oc4ccc(F)cc4c3=O)C(=O)N2CCCN2CCOCC2)c1 (stereo not drawn), CC1Cc2ccccc2C[N+]1(C)CC(=O)c1cccc([N+](=O)[O-])c1 (stereo not drawn), Cc1nc(-c2ccc(S(=O)(=O)N3CCN(c4cccc(C(F)(F)F)c4)CC3)cc2)co1, CCS(=O)(=O)n1nc(-c2ccco2)nc1NCc1ccc(C(C)C)cc1, COc1ccc(NC(=S)NC(=O)/C=C/c2ccco2)cc1, COc1ccccc1CNC(=O)[C@@H](NC(=O)C1CCN(C(=O)[C@@H]2CCCN2)CC1)C(C)C, Cc1ccc(C(=O)c2cn(Cc3cc(C)ccc3C)c3nc(C)ccc3c2=O)cc1, CC(C)[C@H](NC(=O)c1ccco1)C(=O)OCC(=O)Nc1cccc(F)c1, O=C(NCc1ccc(F)cc1)C1CCCN(c2cnccn2)C1 (stereo not drawn), COc1ccc(/C=N/NC(=O)c2[nH]c3ccc(Cl)cc3c2-c2ccccc2)c(C(=O)O)c1OC
